# Results deposited as PubChem BioAssay AID504804 (Drosophila RNAi Screening Center, 2011)
# Assay: 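Knock-downs shielding fly cells from apoptosis caused by DNA damage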 (primary screen)
# System: Drosophila Kc cells
# Reagent: long dsRNA against Drosophila genes, 0.5 µg dsRNA per well
# Time to read-out: 96 h (48 h knock-down, then 48 h drug)
# Challenge: doxorubicin 5 µg/ml for 48 h, added 48 h after dsRNA
# Read-out: 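Viability measured as cellular ATP by luminescence after 48 h knock-down then 48 h doxorubicin at 5 µg/ml; unnormalised plate counts for each replicate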
# Direction: raw ATP luminescence: higher = more viable cells, protection from doxorubicin
# Hit rule: 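z-score of 2 or more over plate mean in both duplicates, retained only when retests and separate dsRNAs confirm the protection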
# The screen tested about 19,000 reagents; this is a random part of those with a known target gene and a result. In the full data, 47 (0.25%) were called active. 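Signals are raw, not normalised; exact z-scores behind calls not deposited; actives needed confirmation, so some wells reaching 2 SD are inactive.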 The numbers tell different reagents against one gene apart. Reagent sequences are not shown.
Target gene,dsRNA no.,SD above plate mean,"raw ATP luminescence, replicate 1","raw ATP luminescence, replicate 2",Call
dpr11 (defective proboscis extension response 11),1,,64800,58857,inactive
dpr11 (defective proboscis extension response 11),2,,71680,56860,inactive
dpr11 (defective proboscis extension response 11),3,,63607,65493,inactive
CG31323,1,,74370,53410,inactive
p38a (p38a MAP kinase),1,,87350,1.09e5,inactive
Fatp (retired record),1,,79703,81957,inactive
CG11920,1,,30867,29377,inactive
schuy (schumacher-levy),1,,71877,61417,inactive
CG5569,1,,56960,60233,inactive
CG34054,1,,64767,84797,inactive
CG33259,1,,56460,35660,inactive
pho (pleiohomeotic),1,,48880,47290,inactive
"AP-1sigma (Adaptor Protein complex 1, sigma subunit)",1,,44513,50723,inactive
"DCTN3-p24 (Dynactin 3, p24 subunit)",1,,63950,55517,inactive
ph-d (polyhomeotic distal),1,,14710,17190,inactive
Sgs3 (Salivary gland secretion 3),1,,50210,53097,inactive
CycB3 (Cyclin B3),1,,57310,63540,inactive
ImpL2 (Ecdysone-inducible gene L2),1,,36063,34853,inactive
Oatp26F (Organic anion transporting polypeptide 26F),1,,24387,33180,inactive
Oatp26F (Organic anion transporting polypeptide 26F),2,,19977,21353,inactive
Oatp26F (Organic anion transporting polypeptide 26F),3,,26577,21570,inactive
dind (diamond),1,,78253,56890,inactive
CG15764,1,,36620,44360,inactive
CG32830 (retired record),1,,73300,79230,inactive
PsGEF (retired record),1,,41800,54270,inactive
PsGEF (retired record),2,,29280,29420,inactive
TTLL12 (Tubulin tyrosine ligase-like 12),1,,42187,98860,inactive
ort (ora transientless),1,,50230,70840,inactive
OstDelta (Oligosaccharide transferase Delta subunit),1,,62513,74333,inactive
CG42741,1,,54977,46563,inactive
CG4957,1,,38643,83807,inactive
CG13544,1,,48600,53563,inactive
Bili (Band4.1 inhibitor LRP interactor),1,,34930,33573,inactive
ara (araucan),1,,41230,38277,inactive
CG5500,1,,63300,38990,inactive
Tsp42En (Tetraspanin 42En),1,,47993,61697,inactive
CG31050,1,,2.46e5,2.24e5,inactive
CG16888,1,,65040,70377,inactive
CG6712,1,2 to 3 SD above plate mean,1.49e5,1.05e5,active
Or83c (Odorant receptor 83c),1,,80430,79030,inactive
Shmt (Serine hydroxymethyl transferase),1,,40140,48050,inactive
CG4161,1,,78387,76607,inactive
alka (alkaliphile),1,,37410,79427,inactive
CG3744,1,,67680,84030,inactive
CG11275,1,,76953,74237,inactive
Dhpr (Dihydropteridine reductase),1,,59367,74717,inactive
Pde6 (Phosphodiesterase 6),1,,91190,26923,inactive
Pde6 (Phosphodiesterase 6),2,,66320,68710,inactive
Pde6 (Phosphodiesterase 6),3,,66990,57860,inactive
TM9SF4 (Transmembrane 9 superfamily protein member 4),1,,75347,60713,inactive
TM9SF4 (Transmembrane 9 superfamily protein member 4),2,,70527,75020,inactive
CG14265,1,,60660,47510,inactive
MTPAP (mitochondrial poly(A) polymerase),1,,34250,62080,inactive
CG10433,1,,84207,49520,inactive
Gfrl (Glial cell line-derived neurotrophic family receptor-like),1,,49920,46100,inactive
Gfrl (Glial cell line-derived neurotrophic family receptor-like),2,,63130,72650,inactive
Gfrl (Glial cell line-derived neurotrophic family receptor-like),3,,44747,41143,inactive
Gfrl (Glial cell line-derived neurotrophic family receptor-like),4,,51920,60130,inactive
CG46441,1,,63127,47523,inactive
CG11656,1,,38037,18837,inactive
Acyp2 (Acylphosphatase 2),1,,92690,63420,inactive
fd96Ca (forkhead domain 96Ca),1,,53370,61980,inactive
Idgf4 (Imaginal disc growth factor 4),1,,3.35e5,2.93e5,inactive
CG42268,1,,85573,74720,inactive
CG42268,2,,84090,81093,inactive
Prosalpha4 (Proteasome alpha4 subunit),1,,3.07e5,3.15e5,inactive
Wdfy2 (WD repeat and FYVE domain containing 2),1,,95813,70213,inactive
zld (zelda),1,,2.72e5,2.20e5,inactive
Nepl5 (Neprilysin-like 5),1,,97810,61123,inactive
CG5011,1,,2.71e5,2.96e5,inactive
CG5011,2,,92657,57937,inactive
CG3285,1,,1.07e5,78473,inactive
cnc (cap-n-collar),1,,66000,64050,inactive
cnc (cap-n-collar),2,,33067,27630,inactive
cnc (cap-n-collar),3,,61410,75530,inactive
cnc (cap-n-collar),4,,73960,70860,inactive
uzip (unzipped),1,,73320,68250,inactive
Slc45-1,1,,56187,63723,inactive
Mlp84B (Muscle LIM protein at 84B),1,,51713,54473,inactive
Rel (Relish),1,,44077,42380,inactive
Hydr1 (alpha/beta hydrolase 1),1,,2.04e5,2.23e5,inactive
Sf3a2 (Splicing factor 3a subunit 2),1,,28567,29110,inactive
CG17154,1,,97997,80810,inactive
Oatp74D (Organic anion transporting polypeptide 74D),1,,76463,87660,inactive
Oatp74D (Organic anion transporting polypeptide 74D),2,,38560,33733,inactive

An excerpt from above, limited to “raw ATP luminescence, replicate 1”.
pho (pleiohomeotic)	48880
AP-1sigma (Adaptor Protein complex 1, sigma subunit)	44513
DCTN3-p24 (Dynactin 3, p24 subunit)	63950
ph-d (polyhomeotic distal)	14710
Sgs3 (Salivary gland secretion 3)	50210
CycB3 (Cyclin B3)	57310
ImpL2 (Ecdysone-inducible gene L2)	36063
Oatp26F (Organic anion transporting polypeptide 26F) #1	24387
Oatp26F (Organic anion transporting polypeptide 26F) #2	19977
Oatp26F (Organic anion transporting polypeptide 26F) #3	26577
dind (diamond)	78253
CG15764	36620
CG32830 (retired record)	73300
